Earlier results, collected in EP1437117A1, “Use of Sinapic acid and/or its derivatives” (Cognis France S.A., priority 2002, dated 2004).
Some entries share one result that the patent states for a list of compounds.

System: Tyrosinase
Settings: cited from earlier work

## COc1cc(/C=C/C(=O)O)cc(OC)c1O [Sinapinsäure, 4-Hydroxy-3,5-Dimethoxy-Zimtsäure]
  Inhibierung der Tyrosinaseaktivität: nachgewiesen
